Measurements published in paper PMC9943654, “The recognition mode between hsRBFA and mitoribosome 12S rRNA during mitoribosomal biogenesis”.

Columns and labels:
Assay in all cases: EMSA
[1] = biological target: T1, hsRBFA Nt-KH (Homo sapiens) (UniProt Q8N0V3); details: EMSA: 20 mM Tris-HCl pH 8.0, 200 mM NaCl, 37 C 30 min, 200 nM ssRNA or 2 uM dsRNA; recombinant protein; residues 42-201; protein details: His6-MBP N-terminal
T1 sequence (looked up): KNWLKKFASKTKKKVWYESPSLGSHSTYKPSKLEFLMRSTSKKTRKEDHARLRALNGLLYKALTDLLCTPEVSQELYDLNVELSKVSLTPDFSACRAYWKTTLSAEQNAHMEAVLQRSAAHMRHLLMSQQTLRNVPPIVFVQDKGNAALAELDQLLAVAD

[2] = biological target: T2, hsRBFA KH-like (Homo sapiens) (UniProt Q8N0V3); details: EMSA: 20 mM Tris-HCl pH 8.0, 200 mM NaCl, 37 C 30 min, 200 nM ssRNA or 2 uM dsRNA; recombinant protein; residues 86-201; protein details: His6-MBP N-terminal
T2 sequence (looked up): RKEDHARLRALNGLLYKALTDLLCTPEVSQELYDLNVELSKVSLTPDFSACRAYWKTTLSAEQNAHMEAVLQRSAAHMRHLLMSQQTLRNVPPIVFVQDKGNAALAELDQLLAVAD

MBP tag = details: EMSA: 20 mM Tris-HCl pH 8.0, 200 mM NaCl, 37 C 30 min, 200 nM ssRNA or 2 uM dsRNA; recombinant protein; label: 5'-FAM in FP
[3] = biological target: hsRBFA B-mut K42A,K46A,K47A,K51A,K53A,K54A,K55A,K70A,K73A (Homo sapiens) (UniProt Q8N0V3); details: EMSA: 20 mM Tris-HCl pH 8.0, 200 mM NaCl, 37 C 30 min, 200 nM ssRNA or 2 uM dsRNA; recombinant protein; protein details: His6-MBP N-terminal; label: 5'-FAM in FP
[4] = biological target: T3, hsRBFA near full-length (Homo sapiens) (UniProt Q8N0V3); details: EMSA: 20 mM Tris-HCl pH 8.0, 200 mM NaCl, 37 C 30 min, 200 nM ssRNA or 2 uM dsRNA, recombinant protein, residues 42-343, protein details: His6-MBP N-terminal
T3 sequence (looked up): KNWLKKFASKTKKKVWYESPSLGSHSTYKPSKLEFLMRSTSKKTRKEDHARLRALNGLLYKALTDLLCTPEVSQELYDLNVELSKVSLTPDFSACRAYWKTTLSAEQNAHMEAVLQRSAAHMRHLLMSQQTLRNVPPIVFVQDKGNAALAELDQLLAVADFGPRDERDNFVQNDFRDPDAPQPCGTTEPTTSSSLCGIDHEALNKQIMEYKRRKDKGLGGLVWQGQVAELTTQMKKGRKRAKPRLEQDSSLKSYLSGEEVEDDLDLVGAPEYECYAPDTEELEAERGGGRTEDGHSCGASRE

[5] = test system: hsRBFA A-mut E59A,E75A,E88A,D89A (Homo sapiens); details: EMSA: 20 mM Tris-HCl pH 8.0, 200 mM NaCl, 37 C 30 min, 200 nM ssRNA or 2 uM dsRNA; recombinant protein; protein details: His6-MBP N-terminal; label: 5'-FAM in FP
[6] = biological target: T4, hsRBFA B2 mutant K53A,K54A,K55A,K70A,K73A (Homo sapiens) (UniProt Q8N0V3); details: EMSA: 20 mM Tris-HCl pH 8.0, 200 mM NaCl, 37 C 30 min, 200 nM ssRNA or 2 uM dsRNA; recombinant protein; protein details: His6-MBP N-terminal; label: 5'-FAM in FP
T4 sequence (looked up, limits assumed): T1 sequence (looked up) with K12A, K13A, K14A, K29A, K32A

[7] = biological target: hsRBFA B1 mutant K42A,K46A,K47A,K51A (Homo sapiens) (UniProt Q8N0V3); details: EMSA: 20 mM Tris-HCl pH 8.0, 200 mM NaCl, 37 C 30 min, 200 nM ssRNA or 2 uM dsRNA; recombinant protein; protein details: His6-MBP N-terminal; label: 5'-FAM in FP
[8] = biological target: T5, hsRBFA KH-Ct (Homo sapiens) (UniProt Q8N0V3); details: EMSA: 20 mM Tris-HCl pH 8.0, 200 mM NaCl, 37 C 30 min, 200 nM ssRNA or 2 uM dsRNA, recombinant protein, residues 86-343, protein details: His6-MBP N-terminal
T5 sequence (looked up): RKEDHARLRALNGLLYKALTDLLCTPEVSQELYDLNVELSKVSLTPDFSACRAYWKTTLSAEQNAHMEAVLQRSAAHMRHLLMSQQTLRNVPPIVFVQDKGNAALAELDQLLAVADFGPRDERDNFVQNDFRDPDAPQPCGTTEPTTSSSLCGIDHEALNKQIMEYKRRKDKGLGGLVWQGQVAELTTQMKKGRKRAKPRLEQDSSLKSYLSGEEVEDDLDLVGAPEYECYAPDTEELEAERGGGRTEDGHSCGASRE

[9] = test system: hsRBFA N-mut K42A,K46A,K47A,K51A,K53A,K54A,K55A,E59A,K70A,K73A,E75A,E88A,D89A (Homo sapiens); details: EMSA: 20 mM Tris-HCl pH 8.0, 200 mM NaCl, 37 C 30 min, 200 nM ssRNA or 2 uM dsRNA; recombinant protein; protein details: His6-MBP N-terminal; label: 5'-FAM in FP

Sequence | binding result [1] | binding result [2] | other results
AGUGCACUUG [ssRNA-4] | no binding | no binding | –
CGCACCACAAGCG [h44-2] | binds | – | –
CUCCUCGAAGGAGGAG [h44-1] | binds | – | –
GACGAAC [ssRNA-3'end] | no binding | – | –
GAGGAGACAA [ssRNA-1] | no binding | no binding | –
GGCGUCACCACAAGUCGCC [h44-3] | binds | – | –
GGCGUCACCCUCUUCGGAGACAAGUCGCC [h44] | – | – | binding result (MBP tag): no binding; binding result [3]: no binding; binding result ([4]; label: 5'-FAM in FP): binds; binding result [5]: binds; binding result [6]: binds more weakly; binding result [7]: binds more weakly; binding result ([8]; label: 5'-FAM in FP): no binding; binding result [9]: no binding
GGGCCCGUAACCC [h44-4] | binds | – | –
GGUGGCGGUGCUUCAUUCGUGAAGCGCGUCACC [h28] | – | – | binding result [4]: binds; binding result [8]: no binding
GUCGUAACAU [ssRNA-2] | no binding | no binding | –
UAAGUGUACU [ssRNA-3] | no binding | no binding | –
UAAGUGUACUGGAAAGUGCACUUG [h45] | – | – | binding result [4]: binds; binding result [8]: no binding

Where a chain is given by its changes, count along the chain named. For some of these results: No signal at the amounts used counts as a negative. For some of these results: At least one verdict was read from the data and is not stated in words by the source. For some of these results: Protein sequences can lack the tags named with them. For some of these results: The exact form of at least one protein or probe is not confirmed. For some of these results: Weaker means in comparison with the reference protein, sequence or condition of that experiment.
